{"source": "PubChem BioAssay AID1159578 | Peter MacCallum Cancer Centre | 2015", "test": "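siRNA pools altering how lymphatic endothelial cells close a scratch wound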 (primary screen)", "cell system": "human lymphatic endothelial cells", "knock-down reagent": "siRNA pool against human genes, 40 nM", "duration": "48 h after transfection", "detection": "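Cells stained with dye and imaged after a scratch; covered wound area and nuclei counted, duplicates averaged, migration set against mock wells and turned into a robust z-score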", "scale": "migration robust z-score: higher = faster migration into the scratch; nuclei per well: higher = more cells in the well", "active means": "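Pools averaging fewer than 3300 nuclei are never called; remaining pools count as changed when migration robust z lies outside -2 to 2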", "meaning of the calls": "active = migration changed; inactive = no migration change, or too few cells", "note": "The whole screen tested about 18,000 reagents; below is a random part of them. About 1,030 of all reagents (5.7%) were called active. 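Inactive calls also include pools with fewer than 3300 nuclei, whose migration was not assessed.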 Raw values are not corrected between plates. A number with no mark means an inactive call. Not all columns of the deposit are shown. No sequences are given here."}
{"Gene":"NEGR1","migration robust z-score":0.02,"migration class with cell-count check":"migration z between -2 and 2; enough cells","nuclei per well, duplicate mean":6746}
{"Gene":"MRPL13","migration robust z-score":0.16,"migration class with cell-count check":"migration z between -2 and 2; enough cells","nuclei per well, duplicate mean":4761}
{"Gene":"KLHDC7A","migration robust z-score":0.66,"migration class with cell-count check":"migration z between -2 and 2; enough cells","nuclei per well, duplicate mean":6268}
{"Gene":"DMWD","migration robust z-score":0.72,"migration class with cell-count check":"migration z between -2 and 2; enough cells","nuclei per well, duplicate mean":5972}
{"Gene":"PMEPA1","migration robust z-score":-3.13,"migration class with cell-count check":"under 3300 nuclei; migration not judged","nuclei per well, duplicate mean":2922}
{"Gene":"POM121L12","migration robust z-score":-1.66,"migration class with cell-count check":"migration z between -2 and 2; enough cells","nuclei per well, duplicate mean":6072}
{"Gene":"BRD3","migration robust z-score":0.96,"migration class with cell-count check":"migration z between -2 and 2; enough cells","nuclei per well, duplicate mean":6486}
{"Gene":"FIZ1","migration robust z-score":-0.8,"migration class with cell-count check":"migration z between -2 and 2; enough cells","nuclei per well, duplicate mean":5898}
{"Gene":"H3-3A","migration robust z-score":-0.2,"migration class with cell-count check":"migration z between -2 and 2; enough cells","nuclei per well, duplicate mean":5786}
{"Gene":"RALYL","migration robust z-score":-0.01,"migration class with cell-count check":"migration z between -2 and 2; enough cells","nuclei per well, duplicate mean":6192}
{"Gene":"CFHR3","migration robust z-score":0.57,"migration class with cell-count check":"migration z between -2 and 2; enough cells","nuclei per well, duplicate mean":6969}
{"Gene":"DNALI1","migration robust z-score":-1.08,"migration class with cell-count check":"migration z between -2 and 2; enough cells","nuclei per well, duplicate mean":3583}

2 of these entries, set out differently:
Gene | migration robust z-score | migration class with cell-count check | nuclei per well, duplicate mean
BRD3 | 0.96 | migration z between -2 and 2; enough cells | 6486
FIZ1 | -0.8 | migration z between -2 and 2; enough cells | 5898

The listing continues.
{"Gene":"TOR2A","migration robust z-score":-0.92,"migration class with cell-count check":"migration z between -2 and 2; enough cells","nuclei per well, duplicate mean":5517}
{"Gene":"CD3G","migration robust z-score":-0.83,"migration class with cell-count check":"migration z between -2 and 2; enough cells","nuclei per well, duplicate mean":6341}
{"Gene":"MTCL2","migration robust z-score":0.34,"migration class with cell-count check":"migration z between -2 and 2; enough cells","nuclei per well, duplicate mean":4754}
{"Gene":"SELPLG","migration robust z-score":"-2.7 (active)","migration class with cell-count check":"migration z below -2; enough cells","nuclei per well, duplicate mean":4818}
{"Gene":"MED6","migration robust z-score":-1.03,"migration class with cell-count check":"migration z between -2 and 2; enough cells","nuclei per well, duplicate mean":5286}
{"Gene":"CIMIP5","migration robust z-score":0.12,"migration class with cell-count check":"migration z between -2 and 2; enough cells","nuclei per well, duplicate mean":6064}
{"Gene":"PPP4R4","migration robust z-score":0.5,"migration class with cell-count check":"migration z between -2 and 2; enough cells","nuclei per well, duplicate mean":4384}
{"Gene":"TSFM","migration robust z-score":0.18,"migration class with cell-count check":"migration z between -2 and 2; enough cells","nuclei per well, duplicate mean":7216}
{"Gene":"WDR33","migration robust z-score":-0.02,"migration class with cell-count check":"migration z between -2 and 2; enough cells","nuclei per well, duplicate mean":6214}
